PubChem BioAssay AID1259425 | University of Nebraska Medical Center | 2018

- Purpose: 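Seek colon cancer weak points whose silencing resembles KSR1 loss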 (primary screen)
- System: HCT116 human colon cancer cells
- Reagents: siRNA pool against human genes, 50 nM siRNA
- Measurement: 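mRNA of six signature genes measured together by branched-DNA assay after 50 nM siRNA pool, blank removed, divided by geometric mean of two housekeeping genes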
- Reading the numbers: BNIP3L mRNA: higher = more BNIP3L transcript after knockdown; NDRG1 mRNA: higher = more NDRG1 transcript after knockdown
The deposit covers about 14,000 reagents; shown is a part drawn at random. Not all columns of the deposit are shown. Reagent sequences are not shown. The record does not give: the time to read-out.

What is on record for MMEL1?
BNIP3L mRNA, set 1: 0.155; NDRG1 mRNA, set 1: 0.189

With KIF23, what does the deposit list?
BNIP3L mRNA, set 1: 0.106; NDRG1 mRNA, set 1: 0.221

With DUSP13B, how do the results read?
BNIP3L mRNA, set 1: 0.0782; NDRG1 mRNA, set 1: 0.0783

Which result is listed for DLGAP4?
BNIP3L mRNA, set 1: 0.0728; NDRG1 mRNA, set 1: 0.436

With IFNK, what does the deposit list?
BNIP3L mRNA, set 1: 0.281; NDRG1 mRNA, set 1: 0.658

With PACSIN3, what does the deposit list?
BNIP3L mRNA, set 1: 0.137; NDRG1 mRNA, set 1: 0.154

Which result is listed for TM2D2?
BNIP3L mRNA, set 1: 0.294; NDRG1 mRNA, set 1: 0.264

What did the screen give for COL9A1?
BNIP3L mRNA, set 1: 0.0998; NDRG1 mRNA, set 1: 0.755

2 neighbouring reagents from above:
PACSIN3 → BNIP3L mRNA, set 1 = 0.137; NDRG1 mRNA, set 1 = 0.154
TM2D2 → BNIP3L mRNA, set 1 = 0.294; NDRG1 mRNA, set 1 = 0.264

Continued:
For ARL4C, how do the results read?
BNIP3L mRNA, set 1: 0.141; NDRG1 mRNA, set 1: 0.787

How did the screen score ZSCAN2?
BNIP3L mRNA, set 1: 0.0198; NDRG1 mRNA, set 1: 0.148

With RFC3, what was measured?
BNIP3L mRNA, set 1: 0.12; NDRG1 mRNA, set 1: 0.4

What did the screen give for NUDT6?
BNIP3L mRNA, set 1: 0.0568; NDRG1 mRNA, set 1: 0.119
